These are yes or no findings as the source states them, for the method shown. Binding seen in cells or lysates may run through a third protein. Some binding calls cover weakened binding; strength is not graded here.
Target: GST-NS1 A/Udorn/72 wt (influenza A virus A/Udorn/72) (UniProt P03495)
Experiment: pull-down; only the target purified

Chains of the proteins cited; added tags and fusions are not shown.
UniProt P03495: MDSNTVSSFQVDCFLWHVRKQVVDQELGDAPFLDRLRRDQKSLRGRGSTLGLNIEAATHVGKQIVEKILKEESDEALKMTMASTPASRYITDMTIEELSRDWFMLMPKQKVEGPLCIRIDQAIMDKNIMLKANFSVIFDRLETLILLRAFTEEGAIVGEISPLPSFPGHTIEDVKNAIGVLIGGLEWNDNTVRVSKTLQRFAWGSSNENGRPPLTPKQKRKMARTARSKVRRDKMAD
UniProt O95639: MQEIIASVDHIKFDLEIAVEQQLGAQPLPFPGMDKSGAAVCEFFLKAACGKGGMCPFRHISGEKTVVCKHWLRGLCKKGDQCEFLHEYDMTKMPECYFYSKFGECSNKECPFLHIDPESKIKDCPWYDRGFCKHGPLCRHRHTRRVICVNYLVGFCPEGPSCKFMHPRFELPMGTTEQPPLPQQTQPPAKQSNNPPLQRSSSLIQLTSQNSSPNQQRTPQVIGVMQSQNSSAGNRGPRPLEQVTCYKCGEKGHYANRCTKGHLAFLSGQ

CPSF30 (from UniProt O95639 1-269) was tested, and the binding was “binds”.

From paper PMC4112715
